The supplement of paper PMC10849652
This is one part of the list. Residues, ends and D or L forms follow the SMILES beside them. *: point of attachment. Cbz = O=C(OCc1ccccc1)*

By UniProt entry, the sequences of proteins in these tests, tags left out. Where a name states a change or a piece, a line headed by the entry shows the natural chain unless it says otherwise.
UniProt O14639: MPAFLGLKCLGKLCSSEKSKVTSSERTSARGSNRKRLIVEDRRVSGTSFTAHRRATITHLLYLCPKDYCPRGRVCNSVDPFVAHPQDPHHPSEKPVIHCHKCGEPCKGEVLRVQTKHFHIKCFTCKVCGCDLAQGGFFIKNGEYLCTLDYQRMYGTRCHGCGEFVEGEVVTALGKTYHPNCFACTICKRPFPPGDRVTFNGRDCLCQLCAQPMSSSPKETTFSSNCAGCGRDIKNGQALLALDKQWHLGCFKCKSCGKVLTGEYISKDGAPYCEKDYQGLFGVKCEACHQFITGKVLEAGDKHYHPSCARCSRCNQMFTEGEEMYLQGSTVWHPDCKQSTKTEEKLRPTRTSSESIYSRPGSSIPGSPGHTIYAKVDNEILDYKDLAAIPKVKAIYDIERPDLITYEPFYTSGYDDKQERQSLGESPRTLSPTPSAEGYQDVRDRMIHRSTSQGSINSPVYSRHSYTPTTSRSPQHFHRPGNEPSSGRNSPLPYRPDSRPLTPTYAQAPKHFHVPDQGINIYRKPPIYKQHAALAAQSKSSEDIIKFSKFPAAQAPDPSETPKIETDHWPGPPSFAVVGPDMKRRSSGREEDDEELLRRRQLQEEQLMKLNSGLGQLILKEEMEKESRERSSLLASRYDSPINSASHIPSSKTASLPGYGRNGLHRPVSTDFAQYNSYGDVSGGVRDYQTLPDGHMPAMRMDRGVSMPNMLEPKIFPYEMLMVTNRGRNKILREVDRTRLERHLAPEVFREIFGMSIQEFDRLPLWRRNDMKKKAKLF
UniProt P16219: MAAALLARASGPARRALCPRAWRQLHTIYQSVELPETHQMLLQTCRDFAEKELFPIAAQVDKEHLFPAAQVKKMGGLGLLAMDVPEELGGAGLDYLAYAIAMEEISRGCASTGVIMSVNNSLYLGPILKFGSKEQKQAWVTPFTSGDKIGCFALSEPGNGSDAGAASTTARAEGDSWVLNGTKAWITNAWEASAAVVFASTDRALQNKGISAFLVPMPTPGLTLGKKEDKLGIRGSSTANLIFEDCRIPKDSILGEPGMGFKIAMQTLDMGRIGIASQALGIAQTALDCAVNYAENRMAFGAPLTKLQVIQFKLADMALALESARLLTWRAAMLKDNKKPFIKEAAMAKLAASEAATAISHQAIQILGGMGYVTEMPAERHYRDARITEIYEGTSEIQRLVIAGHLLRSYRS
UniProt P61163, whole entry, looked up: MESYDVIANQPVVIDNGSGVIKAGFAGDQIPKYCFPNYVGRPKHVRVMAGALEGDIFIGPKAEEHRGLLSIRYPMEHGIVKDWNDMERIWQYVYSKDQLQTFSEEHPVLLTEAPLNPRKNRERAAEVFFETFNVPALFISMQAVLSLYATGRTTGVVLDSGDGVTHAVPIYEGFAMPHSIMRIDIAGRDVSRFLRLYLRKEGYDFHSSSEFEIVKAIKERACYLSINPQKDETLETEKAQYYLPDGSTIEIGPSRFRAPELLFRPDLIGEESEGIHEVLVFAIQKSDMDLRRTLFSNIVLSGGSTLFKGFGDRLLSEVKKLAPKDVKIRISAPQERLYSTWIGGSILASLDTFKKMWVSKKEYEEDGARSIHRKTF
UniProt P42765: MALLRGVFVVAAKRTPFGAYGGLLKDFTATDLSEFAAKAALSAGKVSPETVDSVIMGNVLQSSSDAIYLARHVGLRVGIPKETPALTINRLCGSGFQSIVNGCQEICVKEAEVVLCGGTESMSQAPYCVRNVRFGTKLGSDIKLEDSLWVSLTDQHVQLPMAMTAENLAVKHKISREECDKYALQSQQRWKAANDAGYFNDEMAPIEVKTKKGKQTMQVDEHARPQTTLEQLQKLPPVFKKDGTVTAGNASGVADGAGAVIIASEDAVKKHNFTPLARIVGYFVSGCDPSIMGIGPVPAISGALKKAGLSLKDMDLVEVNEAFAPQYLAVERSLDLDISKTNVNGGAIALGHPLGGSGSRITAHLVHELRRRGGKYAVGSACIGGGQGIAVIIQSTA
UniProt Q9NUJ1: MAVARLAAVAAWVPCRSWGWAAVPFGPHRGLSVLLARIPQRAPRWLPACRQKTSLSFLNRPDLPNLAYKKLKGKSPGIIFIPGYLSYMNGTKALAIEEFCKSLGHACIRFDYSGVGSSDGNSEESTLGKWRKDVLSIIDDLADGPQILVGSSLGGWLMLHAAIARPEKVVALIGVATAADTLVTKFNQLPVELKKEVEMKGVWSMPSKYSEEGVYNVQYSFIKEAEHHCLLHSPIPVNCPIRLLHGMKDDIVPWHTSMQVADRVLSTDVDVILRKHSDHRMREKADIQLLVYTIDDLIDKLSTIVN
UniProt P12814, whole entry, looked up: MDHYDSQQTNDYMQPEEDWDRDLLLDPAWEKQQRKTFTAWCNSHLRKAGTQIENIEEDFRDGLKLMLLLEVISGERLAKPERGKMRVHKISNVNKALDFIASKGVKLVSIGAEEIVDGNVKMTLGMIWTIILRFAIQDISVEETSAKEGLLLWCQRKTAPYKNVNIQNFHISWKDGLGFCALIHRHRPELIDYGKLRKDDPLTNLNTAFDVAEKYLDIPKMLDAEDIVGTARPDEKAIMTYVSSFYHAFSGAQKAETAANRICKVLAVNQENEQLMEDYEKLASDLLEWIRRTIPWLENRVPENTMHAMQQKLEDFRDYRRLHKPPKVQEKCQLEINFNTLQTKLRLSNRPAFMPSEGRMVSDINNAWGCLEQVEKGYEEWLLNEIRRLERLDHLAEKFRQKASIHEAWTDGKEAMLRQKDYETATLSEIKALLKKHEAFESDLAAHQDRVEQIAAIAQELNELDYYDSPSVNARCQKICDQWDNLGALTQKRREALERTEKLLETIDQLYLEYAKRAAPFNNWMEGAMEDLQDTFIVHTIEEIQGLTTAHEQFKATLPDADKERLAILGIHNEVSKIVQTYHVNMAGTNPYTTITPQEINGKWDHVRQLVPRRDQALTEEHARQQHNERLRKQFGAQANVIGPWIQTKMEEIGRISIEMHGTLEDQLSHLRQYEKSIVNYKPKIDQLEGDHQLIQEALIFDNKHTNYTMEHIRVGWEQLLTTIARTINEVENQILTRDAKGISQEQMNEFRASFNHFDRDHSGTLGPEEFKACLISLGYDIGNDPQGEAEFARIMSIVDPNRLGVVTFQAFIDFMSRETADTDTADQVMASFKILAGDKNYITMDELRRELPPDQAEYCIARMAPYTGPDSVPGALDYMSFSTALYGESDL
UniProt Q13443: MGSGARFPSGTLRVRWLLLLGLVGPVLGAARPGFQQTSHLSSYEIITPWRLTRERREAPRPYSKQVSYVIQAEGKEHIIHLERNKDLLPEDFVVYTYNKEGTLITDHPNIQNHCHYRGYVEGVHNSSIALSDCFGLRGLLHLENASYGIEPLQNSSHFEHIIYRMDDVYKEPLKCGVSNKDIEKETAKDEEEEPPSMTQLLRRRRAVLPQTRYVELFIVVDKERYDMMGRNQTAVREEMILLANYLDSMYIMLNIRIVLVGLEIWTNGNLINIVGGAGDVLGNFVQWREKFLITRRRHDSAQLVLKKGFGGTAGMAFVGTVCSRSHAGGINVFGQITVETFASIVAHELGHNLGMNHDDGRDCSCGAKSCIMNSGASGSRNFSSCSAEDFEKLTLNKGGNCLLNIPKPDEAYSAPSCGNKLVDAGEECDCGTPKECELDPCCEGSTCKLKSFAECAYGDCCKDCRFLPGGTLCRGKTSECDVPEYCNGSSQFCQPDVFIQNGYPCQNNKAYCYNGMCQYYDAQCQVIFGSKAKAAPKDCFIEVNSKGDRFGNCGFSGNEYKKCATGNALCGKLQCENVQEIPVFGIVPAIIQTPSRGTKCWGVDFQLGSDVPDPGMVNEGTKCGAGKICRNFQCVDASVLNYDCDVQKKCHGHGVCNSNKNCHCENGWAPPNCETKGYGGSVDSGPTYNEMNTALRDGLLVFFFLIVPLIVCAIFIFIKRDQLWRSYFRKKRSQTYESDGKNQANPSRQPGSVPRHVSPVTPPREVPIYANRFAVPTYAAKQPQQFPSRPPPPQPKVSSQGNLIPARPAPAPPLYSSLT
UniProt Q5VST6: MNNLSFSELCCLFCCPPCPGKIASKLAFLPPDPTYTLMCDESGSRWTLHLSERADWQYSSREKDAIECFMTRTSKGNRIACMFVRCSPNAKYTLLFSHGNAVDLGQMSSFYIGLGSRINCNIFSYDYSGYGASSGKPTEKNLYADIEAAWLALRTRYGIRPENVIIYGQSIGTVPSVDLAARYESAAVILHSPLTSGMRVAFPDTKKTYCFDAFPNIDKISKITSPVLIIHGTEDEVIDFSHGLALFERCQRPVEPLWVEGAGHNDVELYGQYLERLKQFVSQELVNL
UniProt O15439: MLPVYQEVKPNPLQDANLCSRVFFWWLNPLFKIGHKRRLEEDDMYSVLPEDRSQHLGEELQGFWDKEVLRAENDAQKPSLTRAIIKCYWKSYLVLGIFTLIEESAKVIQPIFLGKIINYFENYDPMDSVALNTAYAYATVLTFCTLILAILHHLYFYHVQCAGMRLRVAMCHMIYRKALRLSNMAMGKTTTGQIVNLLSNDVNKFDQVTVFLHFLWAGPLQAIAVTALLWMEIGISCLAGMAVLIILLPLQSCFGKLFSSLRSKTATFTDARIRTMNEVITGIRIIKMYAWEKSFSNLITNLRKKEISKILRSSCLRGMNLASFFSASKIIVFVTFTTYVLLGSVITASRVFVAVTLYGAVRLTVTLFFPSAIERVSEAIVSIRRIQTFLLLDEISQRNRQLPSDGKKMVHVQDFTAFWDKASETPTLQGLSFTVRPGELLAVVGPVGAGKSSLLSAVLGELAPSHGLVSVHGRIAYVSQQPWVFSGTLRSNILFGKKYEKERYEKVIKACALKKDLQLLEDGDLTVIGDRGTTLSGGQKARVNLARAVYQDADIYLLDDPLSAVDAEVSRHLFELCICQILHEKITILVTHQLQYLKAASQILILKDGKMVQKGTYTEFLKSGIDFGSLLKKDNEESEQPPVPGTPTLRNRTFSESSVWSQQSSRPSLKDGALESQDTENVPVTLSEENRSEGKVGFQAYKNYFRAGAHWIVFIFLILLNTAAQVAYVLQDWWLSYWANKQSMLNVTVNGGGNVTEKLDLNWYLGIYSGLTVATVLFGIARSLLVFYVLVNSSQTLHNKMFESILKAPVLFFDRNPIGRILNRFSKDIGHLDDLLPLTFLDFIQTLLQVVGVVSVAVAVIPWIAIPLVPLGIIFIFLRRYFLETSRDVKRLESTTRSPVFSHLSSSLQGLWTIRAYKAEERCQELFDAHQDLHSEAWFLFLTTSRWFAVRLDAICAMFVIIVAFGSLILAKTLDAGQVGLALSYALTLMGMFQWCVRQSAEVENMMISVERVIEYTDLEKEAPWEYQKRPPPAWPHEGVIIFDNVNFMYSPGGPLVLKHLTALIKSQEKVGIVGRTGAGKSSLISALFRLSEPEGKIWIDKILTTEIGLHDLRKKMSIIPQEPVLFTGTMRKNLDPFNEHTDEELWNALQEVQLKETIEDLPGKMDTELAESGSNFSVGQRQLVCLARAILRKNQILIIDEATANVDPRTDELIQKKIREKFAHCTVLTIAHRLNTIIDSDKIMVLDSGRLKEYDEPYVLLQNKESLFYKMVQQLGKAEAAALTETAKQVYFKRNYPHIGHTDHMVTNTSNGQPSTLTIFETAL
UniProt P07311: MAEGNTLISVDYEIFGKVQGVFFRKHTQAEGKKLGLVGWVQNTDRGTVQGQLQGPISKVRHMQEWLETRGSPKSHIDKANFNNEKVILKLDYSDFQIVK
UniProt Q9H3P7: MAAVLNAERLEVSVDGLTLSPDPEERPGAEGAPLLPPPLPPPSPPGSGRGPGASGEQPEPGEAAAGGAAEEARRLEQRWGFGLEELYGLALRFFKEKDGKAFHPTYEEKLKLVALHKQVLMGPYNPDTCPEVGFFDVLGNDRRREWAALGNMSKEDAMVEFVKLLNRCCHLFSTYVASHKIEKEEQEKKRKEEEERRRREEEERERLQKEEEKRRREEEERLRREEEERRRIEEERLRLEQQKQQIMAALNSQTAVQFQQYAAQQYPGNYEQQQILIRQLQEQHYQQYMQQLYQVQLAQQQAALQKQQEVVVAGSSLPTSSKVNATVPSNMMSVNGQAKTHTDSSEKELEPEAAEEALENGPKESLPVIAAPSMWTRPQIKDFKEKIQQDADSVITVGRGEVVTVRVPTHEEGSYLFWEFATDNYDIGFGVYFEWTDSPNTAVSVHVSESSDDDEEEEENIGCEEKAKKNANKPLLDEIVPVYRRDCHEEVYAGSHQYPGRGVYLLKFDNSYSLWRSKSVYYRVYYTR
UniProt O00154: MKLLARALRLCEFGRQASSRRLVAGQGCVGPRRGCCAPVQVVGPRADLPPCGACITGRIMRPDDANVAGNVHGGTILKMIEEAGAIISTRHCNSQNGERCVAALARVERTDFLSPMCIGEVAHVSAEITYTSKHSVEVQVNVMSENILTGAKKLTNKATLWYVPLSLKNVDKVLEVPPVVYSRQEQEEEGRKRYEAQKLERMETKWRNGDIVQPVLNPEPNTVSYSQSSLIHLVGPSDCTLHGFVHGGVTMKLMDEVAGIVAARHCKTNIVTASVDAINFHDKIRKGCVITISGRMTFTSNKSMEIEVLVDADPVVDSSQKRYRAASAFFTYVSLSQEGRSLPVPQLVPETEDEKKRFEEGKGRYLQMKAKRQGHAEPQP

Legend:
Assay in all cases: log2 fold change, soluble protein after heating vs DMSO (PISA); higher = thermal stabilisation; K562 cells, 10 uM, 30 min; active = over 0.2 and 3.5 SD of the protein, either way, in both replicates (recomputed)
erlotinib = compound: C#Cc1cccc(Nc2ncnc3cc(OCCOC)c(OCCOC)cc23)c1 [erlotinib]
Outline: (§1)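 Quantification of soluble protein used TMTpro 16plex LC-MS/MS, with channel sums equalised. Samples were the supernatant after 21,000xg for 90 min of pooled aliquots from K562 cells (2×10^6 cells/mL) treated with 10 μM compound for 30 min, heated for 3 min over 48°C-58°C, and extracted in PBS with 0.5% NP-40 at 4°C. Values, from duplicates, describe thermal stability against control samples on a log2 fold-change scale.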

[1] = compound: C/C(=N\NC(=O)C1=CC(=CC=C1)S(=O)(=O)N2CCOCC2)/C3=C(C=CC(=C3)Cl)O
Outline: as §1

[2] = compound: C1=CC(=C(C=C1Cl)C2=NC3=NC=CN=C3C(=N2)NC4=CC=NC=C4)F
Outline: as §1

[3] = compound: C1=CC(=CC=C1C2=NC3=C(N2)C=C(C=C3)C(=O)N)OC4=CC=C(C=C4)Cl
Outline: as §1

[4] = compound: C1=CC2=C(C=CC(=C2)/C=C\3/C(=O)NC(=NCC4=CC=CS4)S3)N=C1
Outline: as §1

[5] = compound: C1=CC2=NC=CN=C2C=C1/C=C/3\C(=O)NC(=O)S3
Outline: as §1

[6] = compound: C1=CC=C(C=C1)C2=NC(=C(N2)C3=CC=NC=C3)C4=CC(=C(C=C4)Cl)O
Outline: as §1

[7] = compound: C1=CC=C2C(=C1)C3=NNC4=CC=CC(=C43)C2=O
Outline: as §1

[8] = compound: C1CCN(C1)C(=O)NC2=CC=CC(=C2)NC3=NC=C(C(=N3)NCCC4=CN=CN4)Br
Outline: as §1

[9] = compound: C1CN(CCC1(CC2=CC=C(C=C2)Cl)N)C3=NC=NC4=C3C=CN4
Outline: as §1

IRAK-1-4 Inhibitor I = compound: C1COCCN1CCN2C3=CC=CC=C3N=C2NC(=O)C4=CC(=CC=C4)[N+](=O)[O-] [IRAK-1-4 Inhibitor I]
Outline: as §1

ibrutinib = compound: C=CC(=O)N1CCC[C@@H](n2nc(-c3ccc(Oc4ccccc4)cc3)c3c(N)ncnc32)C1 [ibrutinib]
Outline: as §1

[10] = compound: CC(=O)c1cnc2ccc(-c3cc(Cl)c(O)c(Cl)c3)nc2c1N[C@H]1CC[C@H](CN(C)C)CC1
Outline: as §1

ralimetinib = compound: CC(C)(C)Cn1c(N)nc2ccc(-c3[nH]c(C(C)(C)C)nc3-c3ccc(F)cc3)nc21 [ralimetinib]
Outline: as §1

[11] = compound: CC(C)(O)CC(=O)NCCn1ccc2ncnc(Nc3ccc(Oc4cccc(C(F)(F)F)c4)c(Cl)c3)c21
Outline: as §1

[12] = compound: CC(C)C1=C2N=C(C=C(N2N=C1)NCC3=CC=CC=C3)NCCCCCCN
Outline: as §1

[13] = compound: CC(C)C[C@@H](C=O)NC(=O)[C@H](CC(C)C)NC(=O)[C@H](CC(C)C)NC(=O)OCc1ccccc1
Outline: as §1

pinometostat = compound: CC(C)N(C[C@H]1O[C@@H](n2cnc3c(N)ncnc32)[C@H](O)[C@@H]1O)[C@H]1C[C@@H](CCc2nc3cc(C(C)(C)C)ccc3[nH]2)C1 [pinometostat]
Outline: as §1

[14] = compound: CC1=C(C(CC(=O)N1)C2=CC=C(C=C2)C(F)(F)F)C(=O)NC3=C(C=C4C(=C3)C=NN4)F
Outline: as §1

[15] = compound: CC1=C(C2=C(C=C1)C(=O)C3=CC=CC=C3N2CCCN)C
Outline: as §1

Measured: log2 fold change

AASDHPPT (UniProt Q9NRN7)
inactive: erlotinib -0.054 | [1] 0.052 | [2] 0.032 | [3] 0.002 | [4] -0.025 | [5] 0.035 | [6] -0.027 | [7] 0.005 | [8] -0.004 | [9] -0.021 | IRAK-1-4 Inhibitor I 0.028 | ibrutinib -0.038 | [10] 0.043 | ralimetinib -0.067 | [11] 0 | [12] 0.049 | [13] 0.01 | pinometostat 0.003 | [14] -0.029 | [15] 0.022

ABLIM1 (UniProt O14639)
inactive: erlotinib 0.293 | [1] -0.026 | [2] -0.011 | [3] -0.295 | [4] 0.054 | [5] -0.114 | [6] 0.038 | [7] 0.001 | [8] -0.091 | [9] -0.002 | IRAK-1-4 Inhibitor I 0.005 | ibrutinib -0.01 | [10] -0.101 | ralimetinib -0.081 | [11] -0.041 | [12] 0.055 | [13] 0.043 | pinometostat -0.06 | [14] -0.019 | [15] 0.05

ACADS (UniProt P16219)
inactive: erlotinib -0.003 | [1] 0.016 | [2] 0.038 | [3] -0.016 | [4] 0.036 | [5] 0.014 | [6] 0.059 | [7] -0.003 | [8] 0.003 | [9] 0.073 | IRAK-1-4 Inhibitor I -0.014 | ibrutinib -0.007 | [10] -0.025 | ralimetinib -0.016 | [11] -0.035 | [12] 0.024 | [13] -0.039 | pinometostat -0.015 | [14] -0.052 | [15] 0.069

ACTR1A (UniProt P61163)
inactive: erlotinib -0.037 | [1] 0.01 | [2] 0.012 | [3] -0.002 | [4] 0.017 | [5] 0.021 | [6] 0.007 | [7] -0.008 | [8] 0.034 | [9] 0.002 | IRAK-1-4 Inhibitor I 0.019 | ibrutinib 0.012 | [10] 0.044 | ralimetinib -0.011 | [11] -0.005 | [12] 0.033 | [13] -0.003 | pinometostat -0.028 | [14] -0.009 | [15] -0.012

ACAA2 (UniProt P42765)
inactive: erlotinib 0.002 | [1] 0.015 | [2] 0.072 | [3] 0 | [4] -0.017 | [5] 0.003 | [6] -0.025 | [7] 0.006 | [8] -0.008 | [9] 0.022 | IRAK-1-4 Inhibitor I -0.015 | ibrutinib 0.019 | [10] -0.003 | ralimetinib -0.042 | [11] -0.011 | [12] 0.029 | [13] -0.032 | pinometostat -0.03 | [14] 0.014 | [15] 0.029

ABHD10 (UniProt Q9NUJ1)
inactive: erlotinib -0.079 | [1] -0.03 | [2] 0.071 | [3] 0.03 | [4] 0.032 | [5] 0.068 | [6] 0.021 | [7] -0.064 | [8] 0.045 | [9] 0.024 | IRAK-1-4 Inhibitor I 0.049 | ibrutinib -0.037 | [10] 0.058 | ralimetinib -0.035 | [11] -0.053 | [12] 0.046 | [13] -0.058 | pinometostat -0.02 | [14] -0.06 | [15] -0.005

ACTN1 (UniProt P12814)
inactive: erlotinib 0.014 | [1] 0.006 | [2] 0.034 | [3] 0.006 | [4] 0.013 | [5] 0.033 | [6] -0.009 | [7] -0.03 | [8] -0.028 | [9] 0.015 | IRAK-1-4 Inhibitor I -0.005 | ibrutinib 0.015 | [10] 0.008 | ralimetinib -0.033 | [11] 0.013 | [12] 0.07 | [13] -0.033 | pinometostat -0.048 | [14] 0.022 | [15] 0.026

ADAM9 (UniProt Q13443)
inactive: erlotinib 0.015 | [1] -0.036 | [2] 0.035 | [3] -0.012 | [4] 0.012 | [5] 0.062 | [6] -0.025 | [7] -0.019 | [8] -0.008 | [9] 0.066 | IRAK-1-4 Inhibitor I 0.03 | ibrutinib 0.031 | [10] -0.062 | ralimetinib -0.055 | [11] -0.005 | [12] 0.013 | [13] -0.001 | pinometostat -0.034 | [14] -0.017 | [15] 0.049

ABHD17B (UniProt Q5VST6)
inactive: erlotinib 0.016 | [1] -0.029 | [2] -0.021 | [3] -0.018 | [4] 0.034 | [5] -0.048 | [6] 0 | [7] 0.041 | [8] -0.033 | [9] 0 | IRAK-1-4 Inhibitor I 0.082 | ibrutinib 0.036 | [10] -0.032 | ralimetinib -0.002 | [11] -0.004 | [12] 0.155 | [13] 0.107 | pinometostat -0.007 | [14] -0.086 | [15] 0.025

ADAM17 (UniProt P78536)
inactive: erlotinib 0.007 | [1] -0.008 | [2] -0.015 | [3] 0.02 | [4] 0.013 | [5] 0.037 | [6] -0.054 | [7] -0.046 | [8] -0.027 | [9] 0.034 | IRAK-1-4 Inhibitor I 0.009 | ibrutinib 0 | [10] 0.022 | ralimetinib 0.024 | [11] 0.035 | [12] 0.005 | [13] 0.01 | pinometostat 0.046 | [14] -0.022 | [15] -0.024

ABCC4 (UniProt O15439)
inactive: erlotinib 0.041 | [1] 0.044 | [2] 0.096 | [3] 0.026 | [4] 0.002 | [5] 0.027 | [6] 0.023 | [7] -0.019 | [8] -0.009 | [9] 0.063 | IRAK-1-4 Inhibitor I 0.002 | ibrutinib 0.022 | [10] -0.007 | ralimetinib -0.021 | [11] -0.005 | [12] 0.058 | [13] -0.001 | pinometostat -0.047 | [14] 0.012 | [15] 0.066

ACYP1 (UniProt P07311)
inactive: erlotinib 0.021 | [1] 0.067 | [2] 0 | [3] -0.034 | [4] 0.039 | [5] 0.004 | [6] 0.073 | [7] 0.023 | [8] 0.024 | [9] -0.006 | IRAK-1-4 Inhibitor I 0.039 | ibrutinib -0.03 | [10] -0.042 | ralimetinib -0.083 | [11] -0.049 | [12] -0.04 | [13] -0.022 | pinometostat -0.024 | [14] -0.027 | [15] -0.032

ACTB, A0A2R8Y793
inactive: erlotinib 0.015 | [1] -0.015 | [2] 0.074 | [3] 0.062 | [4] -0.02 | [5] -0.086 | [6] 0.034 | [7] 0.026 | [8] -0.006 | [9] 0.065 | IRAK-1-4 Inhibitor I 0.045 | ibrutinib 0.092 | [10] -0.003 | ralimetinib 0.064 | [11] -0.004 | [12] 0.084 | [13] -0.034 | pinometostat -0.054 | [14] 0.042 | [15] -0.011

Two neighbouring entries from above, quoted:
ACTR1A (UniProt P61163)
inactive: erlotinib -0.037 | [1] 0.01 | [2] 0.012 | [3] -0.002 | [4] 0.017 | [5] 0.021 | [6] 0.007 | [7] -0.008 | [8] 0.034 | [9] 0.002 | IRAK-1-4 Inhibitor I 0.019 | ibrutinib 0.012 | [10] 0.044 | ralimetinib -0.011 | [11] -0.005 | [12] 0.033 | [13] -0.003 | pinometostat -0.028 | [14] -0.009 | [15] -0.012

ACAA2 (UniProt P42765)
inactive: erlotinib 0.002 | [1] 0.015 | [2] 0.072 | [3] 0 | [4] -0.017 | [5] 0.003 | [6] -0.025 | [7] 0.006 | [8] -0.008 | [9] 0.022 | IRAK-1-4 Inhibitor I -0.015 | ibrutinib 0.019 | [10] -0.003 | ralimetinib -0.042 | [11] -0.011 | [12] 0.029 | [13] -0.032 | pinometostat -0.03 | [14] 0.014 | [15] 0.029

(listing goes on)

ABI1 (UniProt Q8IZP0)
inactive: erlotinib -0.041 | [1] 0.153 | [2] 0.024 | [3] 0.046 | [4] -0.02 | [5] 0.048 | [6] -0.019 | [7] 0.025 | [8] -0.082 | [9] 0.006 | IRAK-1-4 Inhibitor I -0.003 | ibrutinib 0.048 | [10] -0.059 | ralimetinib 0.009 | [11] 0.014 | [12] -0.065 | [13] 0.048 | pinometostat 0 | [14] 0.014 | [15] 0.042

ACBD3 (UniProt Q9H3P7)
inactive: erlotinib 0.013 | [1] 0.058 | [2] 0.046 | [3] -0.007 | [4] 0.01 | [5] -0.026 | [6] 0.062 | [7] 0.08 | [8] -0.051 | [9] 0.129 | IRAK-1-4 Inhibitor I 0.03 | ibrutinib 0.005 | [10] -0.017 | ralimetinib 0.003 | [11] 0.028 | [12] 0.032 | [13] -0.003 | pinometostat -0.02 | [14] -0.068 | [15] 0.062

ACOT7 isoform 7 (UniProt O00154)
inactive: erlotinib 0.001 | [1] 0.038 | [2] 0.065 | [3] 0.004 | [4] -0.001 | [5] 0.028 | [6] 0.011 | [7] -0.015 | [8] -0.03 | [9] 0.077 | IRAK-1-4 Inhibitor I 0.001 | ibrutinib 0.018 | [10] 0.011 | ralimetinib -0.041 | [11] -0.012 | [12] 0.071 | [13] -0.038 | pinometostat -0.009 | [14] 0.045 | [15] 0.015
